Data source: PubChem BioAssay AID1224830 (NIAID, 2016)

- Test: 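Genes whose knock-down alters the TNF-alpha reporter response to LPS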 (primary screen)
- Cells: human THP-1 monocytic leukaemia cells, TNF dual-luciferase reporter clone, PMA-differentiated to macrophage-like cells
- Knock-down reagent: siRNA pool against human genes, 50 nM
- Duration: LPS for 4 h, given about 3 days after siRNA transfection
- Treatment: bacterial LPS (TLR4 ligand), 10 ng/ml
- Read-out: 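Ratio of firefly to renilla light, scaled to the plate median and expressed as a robust z-score per replicate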
- Direction: TNF reporter robust z-score: higher = stronger TNF reporter response to LPS
- Rule for the call: 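Each well counts as active if its z-score is over 2.8 or under -1.5; controls are left without a call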
In all, the deposit lists about 18,000 reagents; shown is an unselected part. About 2,900 of them (16%) were called active. 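Calls are made per well; low scores hint the gene aids the LPS response, high scores that it dampens it.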 Repeated entries: four replicate wells of each siRNA pool.

no.	target gene	TNF reporter robust z-score	Outcome
1	SLC22A6 (GeneID 9356)	-0.24	inactive
2	SLC22A6 (GeneID 9356)	0.2	inactive
3	SLC22A6 (GeneID 9356)	0.16	inactive
4	SLC22A6 (GeneID 9356)	1.05	inactive
5	SLC12A6 (GeneID 9990)	0.28	inactive
6	SLC12A6 (GeneID 9990)	0.22	inactive
7	SLC12A6 (GeneID 9990)	1.31	inactive
8	SLC12A6 (GeneID 9990)	1.2	inactive
9	EYA4 (GeneID 2070)	-0.01	inactive
10	EYA4 (GeneID 2070)	1.69	inactive
11	EYA4 (GeneID 2070)	4.43	active
12	EYA4 (GeneID 2070)	0.69	inactive
13	SLC4A3 (GeneID 6508)	1.13	inactive
14	SLC4A3 (GeneID 6508)	0.51	inactive
15	SLC4A3 (GeneID 6508)	0.17	inactive
16	SLC4A3 (GeneID 6508)	1.76	inactive
17	MTMR4 (GeneID 9110)	-0.55	inactive
18	MTMR4 (GeneID 9110)	-1.08	inactive
19	MTMR4 (GeneID 9110)	-0.6	inactive

Next entries follow:
no.	target gene	TNF reporter robust z-score	Outcome
20	DEPDC7 (GeneID 91614)	-0.01	inactive
21	DEPDC7 (GeneID 91614)	0.54	inactive
22	DEPDC7 (GeneID 91614)	0.1	inactive
23	DEPDC7 (GeneID 91614)	-0.08	inactive
24	CDH26 (GeneID 60437)	-0.82	inactive
25	CDH26 (GeneID 60437)	-1.43	inactive
26	CDH26 (GeneID 60437)	-1.19	inactive
27	CDH26 (GeneID 60437)	1.34	inactive
28	SLC25A40 (GeneID 55972)	2.16	inactive
29	SLC25A40 (GeneID 55972)	-0.58	inactive
30	SLC25A40 (GeneID 55972)	-0.19	inactive
31	SLC25A40 (GeneID 55972)	-0.71	inactive
32	IGSF3 (GeneID 3321)	-0.59	inactive
33	IGSF3 (GeneID 3321)	-0.18	inactive
34	IGSF3 (GeneID 3321)	-0.62	inactive
35	IGSF3 (GeneID 3321)	-0.37	inactive
36	ZNF385C (GeneID 201181)	0.33	inactive
37	ZNF385C (GeneID 201181)	0.17	inactive
38	ZNF385C (GeneID 201181)	-0.25	inactive
39	ZNF385C (GeneID 201181)	0.54	inactive
40	RPS29 (GeneID 6235)	-0.89	inactive
41	RPS29 (GeneID 6235)	-0.61	inactive
42	RPS29 (GeneID 6235)	-0.85	inactive
43	RPS29 (GeneID 6235)	-0.35	inactive
44	FER1L6 (GeneID 654463)	0.42	inactive
45	FER1L6 (GeneID 654463)	0.11	inactive
46	FER1L6 (GeneID 654463)	0.21	inactive
47	FER1L6 (GeneID 654463)	-0.69	inactive
